No constants are given. Whether binding was seen depends on the method and setting. Tags and fused reporters may be left off the sequences shown.

This assay addresses [Lys(Me3)9]-Histone H3 (1–21)-GGK(Biotin) peptide (UniProt P68431). The assay can be described thus: pull-down; biotinylated H3K9me3 peptide (1 μg) on streptavidin agarose resin, about 5 μg Chp1CD in 20 μl, 1 h on ice; 20 mM HEPES pH 7.5, 75 mM KCl, 0.5 mM DTT; SDS-PAGE, quantified with ImageJ, normalized to wt; both purified.

B1: His6-SUMO-Chp1CD W44A (domain or fragment, UniProt Q10103 15-75)
chain: GETDADVYEVEDILADRVNKNGINEYYIKAAGYDWYDNTWEPEQNLFGAEKVLKKWKKRKK
B1: the binding entry is “no binding (tested: approximately 5 μg of Chp1CD in 20 μl)”.

The values are drawn from article PMC4849473.
